The target in test [1] is recombinant human IL-1α (human) (UniProt P01583). Nature of the test: SPR (Biacore) and MRC-5 bioassay. In general terms: In SPR one partner is held on a chip, and binding of the other changes the refractive index at the surface.
For test [2] the target is unchanged. Kind of test: SPR (Biacore).

By UniProt entry, the sequences of proteins in these tests, tags left out. Residues count along the entry.
UniProt P01583, residues 113-271: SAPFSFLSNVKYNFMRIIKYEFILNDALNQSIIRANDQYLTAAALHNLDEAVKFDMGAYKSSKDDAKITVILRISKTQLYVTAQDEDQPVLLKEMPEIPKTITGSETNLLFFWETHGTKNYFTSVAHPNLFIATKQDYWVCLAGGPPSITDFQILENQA

These are yes or no findings as the source states them, for the method shown. Some results given as binding are weak or reduced against the parent protein; the word gives no strength.

B1: chimeric 3D12.E3 antibody (3D12.E3-VH-hCγ1 / 3D12.E3-VL-hCk) (antibody, human IgG1, kappa, V domains shown)
VH: QIQLVQSGPELKKPGETVKISCKASGYTFRNYGMNWVKQAPGKDLKRMAWINTYTGESTYADDFKGRFAFSLETSASTAYLQINNLKNEDTATYFCARGIYYYGSSYAMDYWGQGTSVTVSS
VL: NIQMTQTTSSLSASLGDRVTISCRASQDISNCLNWYQQKPDGTVKLLIYYTSRLHSGVPSRFSGSGSGTDYSLTISNLEQEDIATYFCQQGKTLPYAFGGGTKLEINR
As to B1, the binding result in test [1] and in test [2] was “binds” in each case.

The record behind these values is patent publication US20090215992A1 (published 2009).
